Experimental findings from patent US20210338783 are described below.

The subject of the series is RuvA/RuvB/RuvC complex (RuvABC) (Escherichia coli). As to the kind of experiment: enzyme reaction in vitro. As to conditions: 20 nM HJ DNA, RuvA 160 nM, RuvB 240 nM, RuvC 160 nM; Mg2+ (10 mM) dependent; also cleaves HJ prebound with E. coli HU; 37 C; purified recombinant protein; protein details: tagless, RuvB and RuvC via IMPACT intein (NEB); label: 5'-FAM on SEQ 13 strand; folded or branched DNA.

For at least one entry, the source does not settle the construct or the ends of the probe.

In the case of “GACGCTGCCGAATTCTGGCTTGCTAGGACATCTTTGCCCACGTTGACCC / TGGGTCAACGTGGGCAAAGATGTCCTAGCAATGTAATCGTCTATGACGTT / CAACGTCATAGACGATTACATTGCTAGGACATGCTGTCTAGAGACTATCGA / ATCGATAGTCTCTAGACAGCATGTCCTAGCAAGCCAGAATTCGGCAGCGT [synthetic Holliday junction DNA]”, the “activity on this sequence” value is on record as “active”.
